From publication PMC4260748
No constants are given. Whether binding was seen depends on the method and setting. Binding seen in cells or lysates may run through a third protein. Some results given as binding are weak or reduced against the parent protein; the word gives no strength. For some of these results: Sequences can lack the tags named with a protein.

Protein sequences, listed by entry. Tags and fused reporters are not part of them.
UniProt P28033: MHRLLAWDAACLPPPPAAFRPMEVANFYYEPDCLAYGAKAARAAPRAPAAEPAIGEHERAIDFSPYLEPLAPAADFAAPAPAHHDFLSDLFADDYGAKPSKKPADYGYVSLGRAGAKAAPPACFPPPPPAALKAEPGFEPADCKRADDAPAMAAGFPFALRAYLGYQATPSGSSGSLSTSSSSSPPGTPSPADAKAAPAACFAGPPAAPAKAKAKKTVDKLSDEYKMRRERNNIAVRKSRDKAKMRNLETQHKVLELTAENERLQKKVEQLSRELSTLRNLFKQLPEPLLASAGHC

T1: Flag-tagged CREB3L4 (cyclic AMP-responsive element-binding protein 3-like 4) (mouse) (UniProt Q9D2A5)
T1 sequence: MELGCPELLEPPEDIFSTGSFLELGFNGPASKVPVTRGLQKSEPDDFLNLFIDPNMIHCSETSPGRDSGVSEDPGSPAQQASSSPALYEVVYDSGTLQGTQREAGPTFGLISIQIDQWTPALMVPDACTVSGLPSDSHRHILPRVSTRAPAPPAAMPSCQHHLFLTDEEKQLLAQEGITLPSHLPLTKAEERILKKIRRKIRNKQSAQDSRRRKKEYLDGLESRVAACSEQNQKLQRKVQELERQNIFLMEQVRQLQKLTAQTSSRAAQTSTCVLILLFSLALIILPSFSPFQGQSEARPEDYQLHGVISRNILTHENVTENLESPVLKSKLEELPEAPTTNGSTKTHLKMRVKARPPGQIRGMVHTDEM


Legend:
[1] = biological target: T1, Flag-tagged CREB3L4 (cyclic AMP-responsive element-binding protein 3-like 4) (mouse); assay: co-IP; NIH-3T3 cells co-transfected with Flag-tagged Creb3l4 and Cebpb, 48 h; lysis in 50 mM Tris pH 7.4, 150 mM NaCl, 0.2% Triton X-100, 0.3% NP-40; 800 μg lysate precipitated with anti-C/EBPβ or anti-CREB3L4 antibody (16 h) and protein G-agarose (2 h) at 4 °C; blot (anti-Flag in the domain mapping)
[2] = biological target: C/EBPβ (CCAAT/enhancer binding protein beta), from pcDNA3.1 mCebpb-V5/His (mouse) (UniProt P28033); assay: as above
[3] = biological target: Endogenous C/EBPβ of 3T3-L1 cells (mouse (endogenous in 3T3-L1)) (UniProt P28033); assay: co-IP; 3T3-L1 cells, endogenous C/EBPβ (Supplementary Figure S5b); antibodies and direction not given

binding [2] | also measured | Molecule
– | binding [1]: binds | C/EBPβ (CCAAT/enhancer binding protein beta), from pcDNA3.1 mCebpb-V5/His (from UniProt P28033 1-296)
binds | – | Flag-tagged CREB3L4 (cyclic AMP-responsive element-binding protein 3-like 4) (protein, UniProt Q9D2A5 1-370) MELGCPELLEPPEDIFSTGSFLELGFNGPASKVPVTRGLQKSEPDDFLNLFIDPNMIHCSETSPGRDSGVSEDPGSPAQQASSSPALYEVVYDSGTLQGTQREAGPTFGLISIQIDQWTPALMVPDACTVSGLPSDSHRHILPRVSTRAPAPPAAMPSCQHHLFLTDEEKQLLAQEGITLPSHLPLTKAEERILKKIRRKIRNKQSAQDSRRRKKEYLDGLESRVAACSEQNQKLQRKVQELERQNIFLMEQVRQLQKLTAQTSSRAAQTSTCVLILLFSLALIILPSFSPFQGQSEARPEDYQLHGVISRNILTHENVTENLESPVLKSKLEELPEAPTTNGSTKTHLKMRVKARPPGQIRGMVHTDEM
– | binding [3]: binds | CREB3L4 in 3T3-L1 cells (protein, UniProt Q9D2A5 1-370) MELGCPELLEPPEDIFSTGSFLELGFNGPASKVPVTRGLQKSEPDDFLNLFIDPNMIHCSETSPGRDSGVSEDPGSPAQQASSSPALYEVVYDSGTLQGTQREAGPTFGLISIQIDQWTPALMVPDACTVSGLPSDSHRHILPRVSTRAPAPPAAMPSCQHHLFLTDEEKQLLAQEGITLPSHLPLTKAEERILKKIRRKIRNKQSAQDSRRRKKEYLDGLESRVAACSEQNQKLQRKVQELERQNIFLMEQVRQLQKLTAQTSSRAAQTSTCVLILLFSLALIILPSFSPFQGQSEARPEDYQLHGVISRNILTHENVTENLESPVLKSKLEELPEAPTTNGSTKTHLKMRVKARPPGQIRGMVHTDEM
binds | – | Flag-Creb3l4-BZIP (BZIP form of mouse CREB3L4) (domain or fragment, UniProt Q9D2A5 193-256) ILKKIRRKIRNKQSAQDSRRRKKEYLDGLESRVAACSEQNQKLQRKVQELERQNIFLMEQVRQL
